Some peptides are written in HELM: one residue between dots, names in brackets for other building blocks, links after the first $. Where no end group is shown, it is not given here. [ ]: non-standard residue; d: D form. Cha = N[C@@H](CC1CCCCC1)C(=O)O; Tle = CC(C)(C)[C@H](N)C(=O)O; dDab = NCC[C@@H](N)C(=O)O; Orn = NCCC[C@H](N)C(=O)O; Dab = NCC[C@H](N)C(=O)O
Experiment: general procedure: Fmoc solid-phase peptide synthesis; preloaded Fmoc-amino acid 2-chlorotrityl resins
Conditions: whole synthesis, scale of the general procedure approximately 80 mg resin per vessel

| Substance | purity (crude or final not stated) |
| --- | --- |
| Ala(4ClPhUr)-Ala-Cha-Dab-Orn-^DDab-Dab-Trp-Dab-tBuGly-Ala-Ser-^DPro-Pro | 88% |
| PEPTIDE1{W.[Hse].[Cha].[Dab].[Orn].[DDab].[Dab].W.[Dab].[tBuGly].A.S.[dP].P}$PEPTIDE1,PEPTIDE1,1:R1-14:R2$$$V2.0 | 95% |
| PEPTIDE1{L.A.Y.[Dab].[Orn].[DDab].[Dab].W.[Dab].[tBuGly].A.S.[dP].P}$PEPTIDE1,PEPTIDE1,1:R1-14:R2$$$V2.0 | 75% |
| Trp-Dap(iPr)-Cha-Dab-Orn-^DDab-Dab-Trp-Hse-tBuGly-Ala-Ser-^DPro-Pro | 96% |
| PEPTIDE1{L.[Dab].Y.[Dab].[Orn].[DDab].[Dab].W.[Dab].[tBuGly].D.S.[dP].P}$PEPTIDE1,PEPTIDE1,1:R1-14:R2$$$V2.0 | 93% |
| PEPTIDE1{L.N.Y.[Dab].[Orn].[D-Dab].[Dab].W.[Dab].[tBuGly].N.S.[dP].P}$PEPTIDE1,PEPTIDE1,1:R1-14:R2$$$V2.0 | 94% |
| PEPTIDE1{W.[Dap].[Cha].[Dab].[Orn].[D-Dab].[Dab].W.[Dab].[tBuGly].A.S.[dP].[Tic(7OH)]}$PEPTIDE1,PEPTIDE1,1:R1-14:R2$$$V2.0 | 91% |
| PEPTIDE1{L.T.Y.[Dab].[Orn].[D-Dab].[Dab].W.[Dab].[tBuGly].Y.S.[dP].P}$PEPTIDE1,PEPTIDE1,1:R1-14:R2$$$V2.0 | 88% |
| LSY[Dab]K[Dab][Dab]W[Dab][Tle]AS[dP]P | 80% |
| PEPTIDE1{V.S.Y.[Dab].[Orn].[DDab].[Dab].W.[Dab].[Cha].A.S.[dP].P}$PEPTIDE1,PEPTIDE1,1:R1-14:R2$$$V2.0 | 92% |
| PEPTIDE1{I.S.Y.[Dab].[Orn].[DDab].[Dab].W.[Dab].[tBuGly].A.S.[dP].P}$PEPTIDE1,PEPTIDE1,1:R1-14:R2$$$V2.0 | 88% |
| PEPTIDE1{L.T.Y.[Dab].[Orn].[D-Dab].[Dab].W.[Dab].[tBuGly].[Dab].S.[dP].P}$PEPTIDE1,PEPTIDE1,1:R1-14:R2$$$V2.0 | 93% |
| PEPTIDE1{L.S.Y.[Dab].[Orn].[D-Dab].[Dab].W.[Dab].[Chg].S.S.[dP].P}$PEPTIDE1,PEPTIDE1,1:R1-14:R2$$$V2.0 | 91% |
| PEPTIDE1{[Nva].S.[Cha].[Dab].[Orn].[DDab].[Dab].W.[Dab].[tBuGly].S.S.[dP].P}$PEPTIDE1,PEPTIDE1,1:R1-14:R2$$$V2.0 | 83% |
| PEPTIDE1{Y.S.Y.[Dab].[Orn].[D-Dab].[Dab].W.[Dab].[Chg].A.S.[dP].P}$PEPTIDE1,PEPTIDE1,1:R1-14:R2$$$V2.0 | 95% |
| Leu-Ala(2ClPhUr)-Cha-Dab-Orn-^DDab-Dab-Trp-Dab-tBuGly-Ala-Ser-^DPro-Pro | 81% |
| PEPTIDE1{L.N.Y.[Dab].[Orn].[D-Dab].[Dab].W.[Dab].[tBuGly].T.S.[dP].P}$PEPTIDE1,PEPTIDE1,1:R1-14:R2$$$V2.0 | 94% |
| PEPTIDE1{L.S.Y.[Dab].[Orn].[D-Dab].[Dab].W.[Dab].[tBuGly].S.S.[dP].P}$PEPTIDE1,PEPTIDE1,1:R1-14:R2$$$V2.0 | 85% |
| PEPTIDE1{L.S.[Cha].[Dab].[Orn].[D-Dab].[Dab].W.[Dab].[tBuGly].A.S.[dP].[Pro((3S)OH)]}$PEPTIDE1,PEPTIDE1,1:R1-14:R2$$$V2.0 | 77% |
| Trp-Ala-Chg-Dab-Orn-^DDab-Dab-Trp-Dab-tBuGly-Ser-Ser-^DPro-Pro((3S)OH) | 97% |
| PEPTIDE1{L.[Dab].Y.[Dab].[Orn].[DDab].[Dab].W.[Dab].[tBuGly].T.S.[dP].P}$PEPTIDE1,PEPTIDE1,1:R1-14:R2$$$V2.0 | 93% |

| Substance | purity (crude or final not stated) |
| --- | --- |
| PEPTIDE1{L.S.[tBuGly].[Dab].[Orn].[DDab].[Dab].W.[Dab].[Chg].A.S.[dP].P}$PEPTIDE1,PEPTIDE1,1:R1-14:R2$$$V2.0 | 93% |
| PEPTIDE1{[Nva].S.[Phe(4F)].[Dab].[Orn].[D-Dab].[Dab].W.[Dab].[tBuGly].A.S.[dP].P}$PEPTIDE1,PEPTIDE1,1:R1-14:R2$$$V2.0 | 90% |
| PEPTIDE1{L.[Dap].Y.[Dab].[Orn].[DDab].[Dab].W.[Dab].[tBuGly].A.S.[dP].P}$PEPTIDE1,PEPTIDE1,1:R1-14:R2$$$V2.0 | 91% |
| VA[Cha][Dab][Orn][dDab][Dab]W[Dab][Tle]AS[dP]P | 88% |
| PEPTIDE1{W.A.Y.[Dab].K.[D-Dab].[Dab].W.[Dab].[Cha].A.S.[dP].P}$PEPTIDE1,PEPTIDE1,1:R1-14:R2$$$V2.0 | 86% |
| PEPTIDE1{Y.S.Y.[Dab].[Orn].[DDab].[Dab].W.[Dab].[tBuGly].A.S.[dP].P}$PEPTIDE1,PEPTIDE1,1:R1-14:R2$$$V2.0 | 86% |
| PEPTIDE1{Y.S.[tBuGly].[Dab].[Orn].[D-Dab].[Dab].W.[Dab].[Cha].A.S.[dP].P}$PEPTIDE1,PEPTIDE1,1:R1-14:R2$$$V2.0 | 92% |
| PEPTIDE1{[Nva].A.[Cha].[Dab].[Orn].[DDab].[Dab].W.[Dab].[Chg].A.S.[dP].P}$PEPTIDE1,PEPTIDE1,1:R1-14:R2$$$V2.0 | 93% |
| Trp-Dab(2PyrMe)-Cha-Dab-Orn-^DDab-Dab-Trp-Dab-tBuGly-Ala-Ser-^DPro-Pro | 90% |
| PEPTIDE1{L.S.Y.[Dab].[Orn].[DDab].[DDab].W.[Dab].[tBuGly].A.S.[dP].P}$PEPTIDE1,PEPTIDE1,1:R1-14:R2$$$V2.0 | 80% |
| PEPTIDE1{L.S.[Cha].[Dab].[Orn].[DDab].[Dab].W.[Dab].V.A.S.[dP].P}$PEPTIDE1,PEPTIDE1,1:R1-14:R2$$$V2.0 | 92% |
| PEPTIDE1{W.[Dap(2,3-OHpropionyl)].[Cha].[Dab].[Orn].[DDab].[Dab].W.[Dab].[tBuGly].A.S.[dP].P}$PEPTIDE1,PEPTIDE1,1:R1-14:R2$$$V2.0 | 92% |
| Ala(CF3)-Ser-Tyr-Dab-Orn-^DDab-Dab-Trp-Dab-tBuGly-Ala-Ser-^DPro-Pro | 89% |
| PEPTIDE1{[Nva].A.Y.[Dab].[Orn].[D-Dab].[Dab].W.[Dab].[tBuGly].A.S.[dP].P}$PEPTIDE1,PEPTIDE1,1:R1-14:R2$$$V2.0 | 85% |
| Trp-Ala-Cha-Dab-Orn-^DDab-Dab-Trp-Dab-tBuGly-Ala-Ala(iPrUr)-^DPro-Pro | 93% |
| PEPTIDE1{L.[Dap].W.[Dab].[Orn].[DDab].[Dab].W.[Dab].[tBuGly].A.S.[dP].P}$PEPTIDE1,PEPTIDE1,1:R1-14:R2$$$V2.0 | 88% |
| PEPTIDE1{W.S.Y.[Dab].[Orn].[D-Dab].[Dab].W.[Dab].[Nva].A.S.[dP].P}$PEPTIDE1,PEPTIDE1,1:R1-14:R2$$$V2.0 | 90% |
| PEPTIDE1{L.S.Y.[Dab].[Orn].[DDab].[Dab].W.[Dab].W.A.S.[dP].P}$PEPTIDE1,PEPTIDE1,1:R1-14:R2$$$V2.0 | 93% |
| PEPTIDE1{I.S.Y.[Dab].[Orn].[DDab].[Dab].W.[Dab].W.A.S.[dP].P}$PEPTIDE1,PEPTIDE1,1:R1-14:R2$$$V2.0 | 92% |
| PEPTIDE1{I.S.Y.[Dab].K.[D-Dab].[Dab].W.[Dab].[tBuGly].A.S.[dP].P}$PEPTIDE1,PEPTIDE1,1:R1-14:R2$$$V2.0 | 93% |

Reference: patent US9938322B2 (priority 2013, dated 2018)
